Experimental findings from paper PMC5996148 are described below.

Several values for one entry are separate records, joined by “and”; a condition that tells them apart may be missing. Equal entries are not always repeated. This is one part of the list. For some assays here: The exact form of the protein is not confirmed.

Holding throughout (test): protein microarray (ProtoArray v5.0), streptavidin-Alexa Fluor 647
Holding throughout (conditions): 3'-biotin; 20 mM Tris (pH 7.5), 5 mM MgCl2, 100 mM KCl, 0.1% Tween-20, A/T-rich and random oligonucleotide blockers; temperature not stated; high values mean tight binding

Test [1] concerns RABEP2 (human).
The subject of test [2] is RABEPK (human).
For test [3], the system named is RABL2B (human).
The subject of test [4] is RABL5 (human).
The target of test [5] is T1, RAD51AP1 (UniProt Q96B01).
T1 sequence: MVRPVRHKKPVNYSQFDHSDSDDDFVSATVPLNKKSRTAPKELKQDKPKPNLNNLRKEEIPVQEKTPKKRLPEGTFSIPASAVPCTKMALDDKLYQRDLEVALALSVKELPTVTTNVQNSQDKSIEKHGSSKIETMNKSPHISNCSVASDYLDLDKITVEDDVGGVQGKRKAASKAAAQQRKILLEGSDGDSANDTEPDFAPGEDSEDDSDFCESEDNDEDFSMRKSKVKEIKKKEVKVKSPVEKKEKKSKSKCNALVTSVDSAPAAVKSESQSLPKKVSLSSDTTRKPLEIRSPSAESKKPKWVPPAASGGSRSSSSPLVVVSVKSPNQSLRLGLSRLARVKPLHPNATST

Test [6] relates to RANGAP1 (human).
Test [7] concerns RAP1GDS1 (human).
The target of test [8] is T2, RASA1 (UniProt P20936).
T2 sequence: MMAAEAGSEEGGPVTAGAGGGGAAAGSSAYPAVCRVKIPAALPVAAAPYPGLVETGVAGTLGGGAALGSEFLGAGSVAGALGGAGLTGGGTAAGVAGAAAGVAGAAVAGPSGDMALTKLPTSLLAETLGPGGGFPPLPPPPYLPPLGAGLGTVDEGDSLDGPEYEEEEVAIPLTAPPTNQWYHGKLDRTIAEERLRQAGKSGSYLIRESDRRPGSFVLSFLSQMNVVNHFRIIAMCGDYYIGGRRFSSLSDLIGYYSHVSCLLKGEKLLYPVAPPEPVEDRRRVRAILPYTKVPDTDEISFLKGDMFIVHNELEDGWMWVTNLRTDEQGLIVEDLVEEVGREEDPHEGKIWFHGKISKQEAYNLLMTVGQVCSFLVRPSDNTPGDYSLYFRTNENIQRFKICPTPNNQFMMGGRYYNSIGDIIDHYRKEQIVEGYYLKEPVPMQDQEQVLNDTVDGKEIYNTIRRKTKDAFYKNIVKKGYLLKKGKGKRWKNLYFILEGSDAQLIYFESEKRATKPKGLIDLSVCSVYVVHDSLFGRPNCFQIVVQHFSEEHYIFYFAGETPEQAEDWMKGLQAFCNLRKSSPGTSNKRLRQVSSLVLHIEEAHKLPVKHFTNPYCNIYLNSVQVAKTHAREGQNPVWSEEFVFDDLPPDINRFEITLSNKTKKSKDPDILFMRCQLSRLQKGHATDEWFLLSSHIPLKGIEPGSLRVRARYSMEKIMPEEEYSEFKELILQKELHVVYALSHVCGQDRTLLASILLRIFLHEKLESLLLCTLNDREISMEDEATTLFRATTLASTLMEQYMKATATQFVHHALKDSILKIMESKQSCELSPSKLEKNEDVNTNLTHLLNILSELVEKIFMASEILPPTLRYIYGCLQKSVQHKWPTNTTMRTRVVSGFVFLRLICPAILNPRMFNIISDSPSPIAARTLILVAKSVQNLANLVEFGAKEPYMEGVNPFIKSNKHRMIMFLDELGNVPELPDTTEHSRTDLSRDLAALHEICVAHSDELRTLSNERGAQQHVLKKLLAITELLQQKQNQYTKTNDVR

Test [9] relates to RASGRP3 (human).
For test [10], the target named is T3, RBED1 (UniProt Q96FG2).
T3 sequence: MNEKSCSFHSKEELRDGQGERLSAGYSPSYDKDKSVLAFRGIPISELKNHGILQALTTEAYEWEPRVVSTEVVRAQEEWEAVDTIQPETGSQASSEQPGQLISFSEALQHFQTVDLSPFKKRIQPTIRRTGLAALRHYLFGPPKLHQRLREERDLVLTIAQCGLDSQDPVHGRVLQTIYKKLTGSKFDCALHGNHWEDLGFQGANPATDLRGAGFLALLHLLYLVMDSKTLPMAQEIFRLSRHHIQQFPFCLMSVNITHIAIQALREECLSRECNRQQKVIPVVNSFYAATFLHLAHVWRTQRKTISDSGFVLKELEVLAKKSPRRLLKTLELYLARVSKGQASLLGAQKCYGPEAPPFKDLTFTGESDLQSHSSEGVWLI

Test [11] deals with RBM33 (human).
For test [12], the target named is T4, RBM34 (UniProt P42696).
T4 sequence: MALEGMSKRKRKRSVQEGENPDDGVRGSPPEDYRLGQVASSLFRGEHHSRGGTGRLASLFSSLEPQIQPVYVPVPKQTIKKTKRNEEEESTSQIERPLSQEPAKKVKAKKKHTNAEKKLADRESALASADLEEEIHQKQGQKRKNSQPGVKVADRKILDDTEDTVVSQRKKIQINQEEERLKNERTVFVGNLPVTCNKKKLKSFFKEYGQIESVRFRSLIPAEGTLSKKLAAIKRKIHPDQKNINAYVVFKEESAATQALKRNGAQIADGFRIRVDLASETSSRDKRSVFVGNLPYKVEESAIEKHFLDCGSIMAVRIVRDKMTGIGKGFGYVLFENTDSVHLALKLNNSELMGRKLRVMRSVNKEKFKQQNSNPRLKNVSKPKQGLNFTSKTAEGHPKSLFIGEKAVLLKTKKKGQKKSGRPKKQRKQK

The subject of test [13] is RBM9 (human).
Test [14] has as its system RCP9 (human).
For test [15], the system named is RCSD1 (human).
The subject of test [16] is REEP6 (human).
Test [17] concerns RFC5 (human).
In test [18] the test system is RFPL3 (human).
In test [19] the test system is RGS10 (human).
In test [20] the test system is RHCG (human).

Consider “GGGGACAGGGGTATGGGGAGGGG [G4-3 biotinylated (CtG)]”, for which the binding signal was -0.3 z-score in test [1]; -0.302 z-score in test [2]; -0.313 z-score in [3]; -0.324 z-score and -0.333 z-score in test [4]; 4.69 z-score in test [5]; -0.319 z-score in test [6]. Further, the binding signal in test [7] is -0.328 z-score and -0.344 z-score and -0.336 z-score; in test [8], 3.2 z-score; in [9], -0.323 z-score; in test [10] it was -0.315 z-score; in test [11], -0.319 z-score; in [12] it was 3.52 z-score. Besides, the binding signal in test [13] was -0.322 z-score; in test [14], -0.33 z-score; in [15] it was -0.313 z-score; in test [16] it was -0.309 z-score; in [17], -0.321 z-score; in test [18], -0.326 z-score. Moreover, the binding signal is -0.322 z-score in test [19] and -0.333 z-score in test [20].
